Results taken from paper doi:10.1101/2024.01.16.575949.
These are yes or no findings as the source states them, for the method shown. In cells and extracts the contact can be indirect. A yes stands for co-enrichment or nearness to the bait. Other partners may have been found. For some of these results: A no says only that the protein was not detected with the bait. Blank lines part the entries; values can stand above or below the molecule they belong to.

Protein sequences, listed by entry. Tags and fused reporters are not part of them.
UniProt Q13547: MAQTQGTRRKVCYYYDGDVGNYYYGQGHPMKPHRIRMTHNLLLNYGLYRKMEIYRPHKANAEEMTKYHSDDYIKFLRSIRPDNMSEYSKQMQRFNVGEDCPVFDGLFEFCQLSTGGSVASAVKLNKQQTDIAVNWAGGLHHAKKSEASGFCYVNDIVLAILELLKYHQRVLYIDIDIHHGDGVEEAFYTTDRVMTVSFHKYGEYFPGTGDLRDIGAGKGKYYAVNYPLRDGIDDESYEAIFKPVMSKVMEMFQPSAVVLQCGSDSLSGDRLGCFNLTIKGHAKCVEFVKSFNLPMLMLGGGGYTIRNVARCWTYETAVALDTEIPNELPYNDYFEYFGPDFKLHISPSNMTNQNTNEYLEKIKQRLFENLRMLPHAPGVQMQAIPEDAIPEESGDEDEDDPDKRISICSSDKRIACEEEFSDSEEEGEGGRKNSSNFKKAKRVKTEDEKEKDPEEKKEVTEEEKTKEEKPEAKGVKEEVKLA
UniProt Q92769: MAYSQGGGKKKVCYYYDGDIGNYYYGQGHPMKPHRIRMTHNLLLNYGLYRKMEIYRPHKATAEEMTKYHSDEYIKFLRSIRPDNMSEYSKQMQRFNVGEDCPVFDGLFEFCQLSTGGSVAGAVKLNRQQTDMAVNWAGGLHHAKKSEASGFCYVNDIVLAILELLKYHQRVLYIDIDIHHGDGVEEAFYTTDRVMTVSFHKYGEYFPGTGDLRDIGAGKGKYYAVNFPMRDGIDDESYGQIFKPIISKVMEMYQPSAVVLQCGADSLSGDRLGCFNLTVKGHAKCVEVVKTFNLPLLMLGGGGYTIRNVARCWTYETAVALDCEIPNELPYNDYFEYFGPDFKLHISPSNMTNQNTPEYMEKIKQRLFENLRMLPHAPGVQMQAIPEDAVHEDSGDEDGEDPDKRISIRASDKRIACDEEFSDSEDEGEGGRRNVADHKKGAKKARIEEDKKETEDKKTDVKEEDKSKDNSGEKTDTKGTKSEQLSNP
UniProt P06748: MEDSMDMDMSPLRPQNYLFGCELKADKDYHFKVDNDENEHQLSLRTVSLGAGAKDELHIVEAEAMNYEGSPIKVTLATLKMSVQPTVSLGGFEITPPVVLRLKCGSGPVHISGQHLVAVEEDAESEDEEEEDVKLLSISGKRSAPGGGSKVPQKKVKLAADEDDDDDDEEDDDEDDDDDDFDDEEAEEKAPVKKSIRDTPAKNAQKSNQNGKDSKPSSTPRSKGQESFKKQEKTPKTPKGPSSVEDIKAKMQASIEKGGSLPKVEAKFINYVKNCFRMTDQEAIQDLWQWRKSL

Tests used:
Experiment in all cases: affinity purification with mass spectrometry
Halo-FAM60A_Δ1 = molecular target: T1, Halo-FAM60A_Δ1 (UniProt Q9NP50)
T1 sequence: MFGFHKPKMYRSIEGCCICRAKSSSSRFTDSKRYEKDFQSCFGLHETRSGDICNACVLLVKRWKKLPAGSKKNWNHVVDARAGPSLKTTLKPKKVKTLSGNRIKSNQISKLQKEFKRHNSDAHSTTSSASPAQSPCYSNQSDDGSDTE

Halo-FAM60A_Δ4 = molecular target: T2, Halo-FAM60A_Δ4 (UniProt Q9NP50)
T2 sequence: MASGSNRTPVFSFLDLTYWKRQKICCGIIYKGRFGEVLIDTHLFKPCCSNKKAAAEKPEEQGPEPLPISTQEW

Halo-SIN3A = molecular target: T3, Halo-SIN3A (UniProt Q96ST3)
T3 sequence: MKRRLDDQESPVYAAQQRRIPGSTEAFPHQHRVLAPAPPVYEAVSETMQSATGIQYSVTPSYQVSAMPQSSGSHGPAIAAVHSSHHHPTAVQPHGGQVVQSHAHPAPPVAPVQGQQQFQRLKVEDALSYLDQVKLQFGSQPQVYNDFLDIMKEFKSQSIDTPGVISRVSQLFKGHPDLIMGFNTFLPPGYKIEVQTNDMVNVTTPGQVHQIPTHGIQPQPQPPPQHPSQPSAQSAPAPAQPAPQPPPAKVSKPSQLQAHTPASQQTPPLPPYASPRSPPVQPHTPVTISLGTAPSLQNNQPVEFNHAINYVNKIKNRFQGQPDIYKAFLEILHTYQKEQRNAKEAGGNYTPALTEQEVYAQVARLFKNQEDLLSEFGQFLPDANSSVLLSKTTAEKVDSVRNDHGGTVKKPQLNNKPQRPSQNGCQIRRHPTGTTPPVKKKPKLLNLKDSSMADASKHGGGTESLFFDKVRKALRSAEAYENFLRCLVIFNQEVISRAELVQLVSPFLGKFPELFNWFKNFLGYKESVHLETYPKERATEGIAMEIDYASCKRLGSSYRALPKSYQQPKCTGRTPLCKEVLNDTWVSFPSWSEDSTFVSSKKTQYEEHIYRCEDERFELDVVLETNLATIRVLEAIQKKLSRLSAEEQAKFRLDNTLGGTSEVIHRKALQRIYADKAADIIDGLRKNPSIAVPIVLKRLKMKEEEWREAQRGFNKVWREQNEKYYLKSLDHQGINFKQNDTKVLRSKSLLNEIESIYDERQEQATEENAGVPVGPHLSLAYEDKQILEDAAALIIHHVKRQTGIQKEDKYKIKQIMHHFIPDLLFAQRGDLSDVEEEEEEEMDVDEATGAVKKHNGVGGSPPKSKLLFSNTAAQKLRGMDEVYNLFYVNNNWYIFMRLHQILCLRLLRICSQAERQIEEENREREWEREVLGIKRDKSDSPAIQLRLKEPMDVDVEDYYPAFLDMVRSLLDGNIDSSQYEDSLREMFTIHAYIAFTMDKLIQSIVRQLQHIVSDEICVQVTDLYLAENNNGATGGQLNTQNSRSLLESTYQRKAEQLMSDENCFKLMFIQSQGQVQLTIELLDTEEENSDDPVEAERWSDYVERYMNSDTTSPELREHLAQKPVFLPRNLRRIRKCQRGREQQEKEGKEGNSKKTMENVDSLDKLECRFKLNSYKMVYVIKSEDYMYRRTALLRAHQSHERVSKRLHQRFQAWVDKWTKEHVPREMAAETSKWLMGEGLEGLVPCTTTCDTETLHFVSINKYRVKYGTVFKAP

FAM60A-Halo = molecular target: T4, FAM60A-Halo (UniProt Q9NP50)
T4 sequence: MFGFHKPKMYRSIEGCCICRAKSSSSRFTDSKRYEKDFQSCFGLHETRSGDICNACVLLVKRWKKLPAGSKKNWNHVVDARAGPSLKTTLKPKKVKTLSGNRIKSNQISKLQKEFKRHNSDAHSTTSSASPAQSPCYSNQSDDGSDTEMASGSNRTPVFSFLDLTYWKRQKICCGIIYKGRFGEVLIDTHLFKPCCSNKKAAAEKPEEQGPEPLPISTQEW

[1] = molecular target: T5, Halo-FAM60A (full length) (UniProt Q9NP50)
T5 sequence: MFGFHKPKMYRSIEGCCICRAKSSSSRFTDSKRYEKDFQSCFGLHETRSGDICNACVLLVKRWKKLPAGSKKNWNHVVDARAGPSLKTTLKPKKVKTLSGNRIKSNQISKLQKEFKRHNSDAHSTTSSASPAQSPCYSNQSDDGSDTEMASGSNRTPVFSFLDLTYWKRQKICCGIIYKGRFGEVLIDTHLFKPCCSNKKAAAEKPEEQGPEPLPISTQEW

Halo-SIN3A_Δ4 = molecular target: Halo-SIN3A_Δ4
Halo-SIN3A_Δ5 = molecular target: Halo-SIN3A_Δ5
Halo-SIN3A_Δ6 = molecular target: Halo-SIN3A_Δ6
Halo-SIN3A_Δ7_968-1186 = molecular target: Halo-SIN3A_Δ7_968-1186
Halo-SIN3A_Δ8 = molecular target: Halo-SIN3A_Δ8
Halo-SIN3A_Δ3 = molecular target: Halo-SIN3A_Δ3

Molecule: HDAC1 (endogenous) (from UniProt Q13547 1-482) (enzyme)
binding (Halo-FAM60A_Δ1): binds | binding (Halo-FAM60A_Δ4): binds | binding (Halo-SIN3A): binds

Molecule: HDAC2 (endogenous) (from UniProt Q92769 1-488) (enzyme)
binding (Halo-FAM60A_Δ1): binds | binding (Halo-FAM60A_Δ4): binds | binding (Halo-SIN3A): binds

B3: BRMS1 (endogenous) (protein, UniProt Q9HCU9 1-246)
chain: MPVQPPSKDTEEMEAEGDSAAEMNGEEEESEEERSGSQTESEEESSEMDDEDYERRRSECVSEMLDLEKQFSELKEKLFRERLSQLRLRLEEVGAERAPEYTEPLGGLQRSLKIRIQVAGIYKGFCLDVIRNKYECELQGAKQHLESEKLLLYDTLQGELQERIQRLEEDRQSLDLSSEWWDDKLHARGSSRSWDSLPPSKRKKAPLVSGPYIVYMLQEIDILEDWTAIKKARAAVSPQKRKSDGP
binding (Halo-SIN3A): binds | binding (Halo-SIN3A_Δ6): no binding | binding (Halo-SIN3A_Δ7_968-1186): no binding | binding (Halo-SIN3A_Δ8): no binding

Next, values leading:

binding (FAM60A-Halo): binds | binding [1]: binds | binding (Halo-FAM60A_Δ1): binds
Molecule: NPM1 (endogenous) (from UniProt P06748 1-294)

binding (Halo-SIN3A): binds | binding (Halo-SIN3A_Δ4): no binding | binding (Halo-SIN3A_Δ5): no binding | binding (Halo-SIN3A_Δ6): no binding | binding (Halo-SIN3A_Δ7_968-1186): no binding | binding (Halo-SIN3A_Δ8): no binding
B1: ING1 (endogenous) (protein, UniProt Q9UK53 1-422)
chain: MSFVECPYHSPAERLVAEADEGGPSAITGMGLCFRCLLFSFSGRSGVEGGRVDLNVFGSLGLQPWIGSSRCWGGPCSSALRCGWFSSWPPPSKSAIPIGGGSRGAGRVSRWPPPHWLEAWRVSPLPLSPLSPATFGRGFIAVAVIPGLWARGRGCSSDRLPRPAGPARRQFQAASLLTRGWGRAWPWKQILKELDECYERFSRETDGAQKRRMLHCVQRALIRSQELGDEKIQIVSQMVELVENRTRQVDSHVELFEAQQELGDTAGNSGKAGADRPKGEAAAQADKPNSKRSRRQRNNENRENASSNHDHDDGASGTPKEKKAKTSKKKKRSKAKAEREASPADLPIDPNEPTYCLCNQVSYGEMIGCDNDECPIEWFHFSCVGLNHKPKGKWYCPKCRGENEKTMDKALEKSKKERAYNR

binding (Halo-SIN3A_Δ3): no binding
B2: SAP130 (endogenous) (protein, UniProt Q9H0E3 1-1048)
chain: MGPPRHPQAGEIEAGGAGGGRRLQVEMSSQQFPRLGAPSTGLSQAPSQIANSGSAGLINPAATVNDESGRDSEVSAREHMSSSSSLQSREEKQEPVVVRPYPQVQMLSTHHAVASATPVAVTAPPAHLTPAVPLSFSEGLMKPPPKPTMPSRPIAPAPPSTLSLPPKVPGQVTVTMESSIPQASAIPVATISGQQGHPSNLHHIMTTNVQMSIIRSNAPGPPLHIGASHLPRGAAAAAVMSSSKVTTVLRPTSQLPNAATAQPAVQHIIHQPIQSRPPVTTSNAIPPAVVATVSATRAQSPVITTTAAHATDSALSRPTLSIQHPPSAAISIQRPAQSRDVTTRITLPSHPALGTPKQQLHTMAQKTIFSTGTPVAAATVAPILATNTIPSATTAGSVSHTQAPTSTIVTMTVPSHSSHATAVTTSNIPVAKVVPQQITHTSPRIQPDYPAERSSLIPISGHRASPNPVAMETRSDNRPSVPVQFQYFLPTYPPSAYPLAAHTYTPITSSVSTIRQYPVSAQAPNSAITAQTGVGVASTVHLNPMQLMTVDASHARHIQGIQPAPISTQGIQPAPIGTPGIQPAPLGTQGIHSATPINTQGLQPAPMGTQQPQPEGKTSAVVLADGATIVANPISNPFSAAPAATTVVQTHSQSASTNAPAQGSSPRPSILRKKPATDGAKPKSEIHVSMATPVTVSMETVSNQNNDQPTIAVPPTAQQPPPTIPTMIAAASPPSQPAVALSTIPGAVPITPPITTIAAAPPPSVTVGGSLSSVLGPPVPEIKVKEEVEPMDIMRPVSAVPPLATNTVSPSLALLANNLSMPTSDLPPGASPRKKPRKQQHVISTEEGDMMETNSTDDEKSTAKSLLVKAEKRKSPPKEYIDEEGVRYVPVRPRPPITLLRHYRNPWKAAYHHFQRYSDVRVKEEKKAMLQEIANQKGVSCRAQGWKVHLCAAQLLQLTNLEHDVYERLTNLQEGIIPKKKAATDDDLHRINELIQGNMQRCKLVMDQISEARDSMLKVLDHKDRVLKLLNKNGTVKKVSKLKRKEKV

binding (Halo-SIN3A): binds | binding (Halo-SIN3A_Δ5): no binding
B4: SUDS3 (endogenous) (protein, UniProt Q9H7L9 1-328)
chain: MSAAGLLAPAPAQAGAPPAPEYYPEEDEELESAEDDERSCRGRESDEDTEDASETDLAKHDEEDYVEMKEQMYQDKLASLKRQLQQLQEGTLQEYQKRMKKLDQQYKERIRNAELFLQLETEQVERNYIKEKKAAVKEFEDKKVELKENLIAELEEKKKMIENEKLTMELTGDSMEVKPIMTRKLRRRPNDPVPIPDKRRKPAPAQLNYLLTDEQIMEDLRTLNKLKSPKRPASPSSPEHLPATPAESPAQRFEARIEDGKLYYDKRWYHKSQAIYLESKDNQKLSCVISSVGANEIWVRKTSDSTKMRIYLGQLQRGLFVIRRRSAA
